For at least one entry, the source does not settle the construct or the ends of the probe. Negatives hold for the conditions tested.

For the series, the system named is NicR2 (Pseudomonas putida S16). The experiment in a line: ITC. The conditions noted are these: ITC: PBS, 64 uM NicR2 in cell, 100 uM DNA titrant; temperature not given; recombinant protein.

For the sequence “CACTAATTATACCGTCGTACATAGCATAAA (double strand) [R-m23 30 bp]”, the binding result is on record as “no binding”.
As for “CACTAATTATACCGTCGTACATCGAATAAA (double strand) [R-m34 30 bp]”, the binding result is “no binding”.

Source of the values: paper PMC6550519, “Regulatory Mechanism of Nicotine Degradation in Pseudomonas putida” (mBio, 2019).
